Measured values reported in patent publication US10450343 (dated 2019).

Experiment: general procedure: Fmoc solid-phase peptide synthesis
Settings: whole synthesis

Substance: [Asp(9)-H2O]-AVE0010
- crude HPLC purity (UV 215 nm): 23.4%
- final HPLC purity (area %): 91.50%
